The list shows only some results of the screen, not a fair sample: it is rich in T/C values a quarter to a half above the control, in often repeated tests (any T/C) and in doses without a T/C. Other doses and runs of a compound stand elsewhere. T/C gives the treated animals as a percentage of the vehicle group. Some entries give survivors of the animals treated and no T/C: the source files T/C as zero there, which appears to mark a toxic dose or a test without result, not a measured value. Some survivor counts are full or nearly so, which does not show that the dose was tolerated: survival well below the control is almost never listed, so the zero probably covers shortened survival too. Survivors were counted at the toxicity check, usually on the fifth day, unless a day is given; later deaths do not show. Schedule codes are those of the source, taken here to give the interval after Q, in days (D) or hours (H), and the number of doses after X. Some entries were tested several times; their values stand side by side, smallest first. For survival time, this PubChem deposit counts one and a half times the control or more as active, and values a quarter to a half above the control carry no call in these data; other NCI protocols may use other cut-offs. Some T/C values are followed by the survivors on the day toxicity was checked, most often the fifth; without a count, all were alive then. Marks such as (2×) stand for listed records that agree. Where a SMILES comes first, the peptide text is derived from it. The star is where a group is joined. Cbz = O=C(OCc1ccccc1)*
Test system: B6C3F1 mice, B16 melanoma ip, median survival T/C
Experiment: NCI In Vivo Anticancer Drug Screen. Data for tumor model B16 Melanoma (intraperitoneal) in B6C3F1 mice
Conditions: T/C endpoint: median survival time, higher T/C = longer survival
Description: The antitumor activity of compounds was measured in mice bearing transplantable tumors. Survival or tumor size were measured and the results are expressed as the measurement made in the treated group (T) divided by the measurement made in the vehicle treated control group (C). The tumor model used in this assay is B16 Melanoma (intraperitoneal) in B6C3F1 mice

[1] = dose: 50.0 mg/kg/injection, schedule: Q01DX009 (ip), vehicle: Klucel (hydroxypropylcellulose) (HPC)
[2] = dose: 100.0 mg/kg/injection, schedule: Q01DX009 (ip), vehicle: Klucel (hydroxypropylcellulose) (HPC)
[3] = dose: 25.0 mg/kg/injection, schedule: Q01DX009 (ip), vehicle: saline with Tween-80
[4] = dose: 200.0 mg/kg/injection, schedule: Q01DX009 (ip), vehicle: saline with Tween-80
[5] = dose: 50.0 mg/kg/injection, schedule: Q01DX009 (ip), vehicle: water
[6] = dose: 400.0 mg/kg/injection, schedule: Q01DX009 (ip), vehicle: saline with Tween-80
[7] = dose: 0.5 mg/kg/injection, schedule: Q01DX009 (ip), vehicle: saline + alcohol
[8] = dose: 1.0 mg/kg/injection, schedule: Q01DX009 (ip), vehicle: saline + alcohol
[9] = dose: 2.0 mg/kg/injection, schedule: Q01DX009 (ip), vehicle: saline + alcohol
[10] = dose: 200.0 mg/kg/injection, schedule: Q01DX009 (ip), vehicle: Klucel (hydroxypropylcellulose) (HPC)
[11] = dose: 50.0 mg/kg/injection, schedule: Q01DX009 (ip), vehicle: saline with Tween-80
[12] = dose: 100.0 mg/kg/injection, schedule: Q01DX009 (ip), vehicle: saline with Tween-80

SMILES: CC1OC(O[C@H]2C[C@](O)(C(C)O)Cc3c(O)c4c(c(O)c32)C(=O)c2c(O)cccc2C4=O)CC(NC=O)C1O (some centres not stated)
- T/C (dose: 0.31 mg/kg/injection, schedule: Q01DX001 (ip), vehicle: water): 149 % of control
- survivor count (dose: 5.0 mg/kg/injection, schedule: Q01DX001 (ip), vehicle: distilled water + Tween-80): 9 of 10
- survivor count (dose: 10.0 mg/kg/injection, schedule: Q01DX001 (ip), vehicle: distilled water + Tween-80): 3 of 10
- survivor count (dose: 20.0 mg/kg/injection, schedule: Q01DX001 (ip), vehicle: distilled water + Tween-80): 0 of 10
- survivor count (dose: 40.0 mg/kg/injection, schedule: Q01DX001 (ip), vehicle: distilled water + Tween-80): 0 of 10

SMILES: O=C(C#Cc1ccccc1)c1ccccc1
- survivor count [1]: 1 of 10
- survivor count [2]: 0 of 10

SMILES: O=C(CCl)NC(Cc1ccc(O)cc1)C(=O)O (configuration not stated)
- survivor count [3]: 10 of 10
- survivor count [4]: 10 of 10

SMILES: O=C1N[C@H]2[C@H](O)[C@H](O)[C@@H](O)[C@H](O)[C@@H]2c2cc3c(c(O)c21)OCO3
- T/C (dose: 3.12 mg/kg/injection, schedule: Q01DX009 (ip), vehicle: saline + alcohol): 129 % of control
- survivor count (dose: 12.0 mg/kg/injection, schedule: Q01DX009 (ip), vehicle: saline + alcohol): 6 of 10
- survivor count (dose: 12.5 mg/kg/injection, schedule: Q01DX009 (ip), vehicle: saline + alcohol): 1 of 10
- survivor count (dose: 25.0 mg/kg/injection, schedule: Q01DX009 (ip), vehicle: saline + alcohol): 0 of 10

SMILES: O=NN(CCCl)C(=O)NCCO
- T/C (dose: 24.0 mg/kg/injection, schedule: Q01DX009 (ip), vehicle: water): 146 % of control
- survivor count (dose: 25.0 mg/kg/injection, schedule: Q01DX009 (ip), vehicle: water): 10 of 10
- survivor count [5]: 10 of 10

SMILES: NCC1CCC(C(=O)O)CC1 (configuration not stated)
- survivor count [6]: 10 of 10

SMILES: O=C1CNC(=O)N1CN1CCOCC1
- survivor count (dose: 800.0 mg/kg/injection, schedule: Q01DX009 (ip), vehicle: Klucel (hydroxypropylcellulose) (HPC)): 7 of 10

SMILES: COC(=O)[C@@]12OC[C@]34[C@H]([C@@H](O)[C@@H]1O)[C@@]1(C)CC(=O)C(O)=C(C)[C@@H]1C[C@H]3OC(=O)[C@H](OC(=O)/C=C(\C)C(C)C)[C@@H]24
- T/C (dose: 0.06 mg/kg/injection, schedule: Q01DX009 (ip), vehicle: saline + alcohol): 132 % of control
- T/C (dose: 0.12 mg/kg/injection, schedule: Q01DX009 (ip), vehicle: saline + alcohol): 134 % of control
- T/C (dose: 0.25 mg/kg/injection, schedule: Q01DX009 (ip), vehicle: saline + alcohol): 143, 158, 174, 175, 179, 183 % of control
- T/C [7]: 160, 163 (2×), 172 [9 of 10 alive], 190 % of control
- survivor count [7]: 7 of 10
- T/C [8]: 161, 164 [8 of 9 alive], 172, 184, 191 % of control
- survivor count [8]: 7 of 10
- T/C [9]: 158, 183, 183 [8 of 9 alive], 187 % of control
- survivor count [9]: 3 of 10 and 8 of 10
- survivor count (dose: 4.0 mg/kg/injection, schedule: Q01DX009 (ip), vehicle: saline + alcohol): 0 of 10, 1 of 10, 4 of 10

SMILES: O=C(CCl)N1c2ccccc2Oc2cc3ccccc3cc21
- T/C (dose: 50.0 mg/kg/injection, schedule: Q01DX009 (ip), vehicle: saline): 127 % of control

SMILES: CC1=C[S+](c2ccccc2)c2cccc3cc4ccccc4c1c23 (configuration not stated)
- survivor count (dose: 4.0 mg/kg/injection, schedule: Q01DX009 (ip), vehicle: saline with Tween-80): 9 of 10
- survivor count (dose: 8.0 mg/kg/injection, schedule: Q01DX009 (ip), vehicle: saline with Tween-80): 6 of 10

SMILES: O=C1C2C3C=CC(C2C(=O)N1CO)C1C2C(=O)N(CO)C(=O)C2C31 (configuration not stated)
- survivor count [5]: 10 of 10
- survivor count (dose: 100.0 mg/kg/injection, schedule: Q01DX009 (ip), vehicle: water): 6 of 10

SMILES: COC1/C=C/O[C@@]2(C)Oc3c(C)c(O)c4c(O)c(cc(O)c4c3C2=O)NC(=O)/C(C)=C\C=C\[C@H](C)C(O)[C@@H](C)[C@@H](O)[C@@H](C)[C@H](OC(C)=O)[C@@H]1C (some centres not stated)
- survivor count [4]: 10 of 10
- survivor count [6]: 10 of 10

SMILES: O=[Te]=O
- survivor count (dose: 12.5 mg/kg/injection, schedule: Q01DX009 (ip), vehicle: saline): 8 of 10

SMILES: CCCCCC[C@H]([C@H](C)O)n1cnc2c(N)ncnc21
- T/C (dose: 6.25 mg/kg/injection, schedule: Q01DX009 (ip), vehicle: Klucel (hydroxypropylcellulose) (HPC)): 143 % of control
- T/C (dose: 25.0 mg/kg/injection, schedule: Q01DX009 (ip), vehicle: Klucel (hydroxypropylcellulose) (HPC)): 138 % of control
- survivor count [10]: 1 of 10

SMILES: COc1cccc(C2NC(=O)c3c(n[nH]c3N)S2)c1O (configuration not stated)
- survivor count [6]: 2 of 10

SMILES: O=Cc1ccc(O)c(O)c1
- survivor count [11]: 10 of 10
- survivor count (dose: 200.0 mg/kg/injection, schedule: Q01DX009 (ip), vehicle: water): 10 of 10
- survivor count (dose: 400.0 mg/kg/injection, schedule: Q01DX009 (ip), vehicle: water): 8 of 10

SMILES: c1cn[nH]c1
- survivor count (dose: 200.0 mg/kg/injection, schedule: Q01DX009 (ip), vehicle: saline): 8 of 10

SMILES: CCCC1CCC(=C2C(=O)CCC2=O)O1 (configuration not stated)
- survivor count [12]: 8 of 10
- survivor count [4]: 6 of 10
- survivor count [6]: 1 of 10

SMILES: Nc1nc2c(C(=O)N3CCCC3)nnn2c2ccccc12
- survivor count [4]: 0 of 10

SMILES: NCCc1ccc(O)cc1
- survivor count (dose: 800.0 mg/kg/injection, schedule: Q01DX009 (ip), vehicle: saline): 0 of 10

SMILES: CS(=O)(=O)OCCN(CCOS(C)(=O)=O)c1ccc(C=O)cc1
- survivor count [3]: 10 of 10
- survivor count [11]: 10 of 10
- survivor count [12]: 10 of 10

SMILES: COC(=O)NC1C(C)OC(OC2C/C=C(/C)C3C=CC4C(OC5CC(OC6CC(O)C(OC7CC(O)C(OC)C(C)O7)C(C)O6)C(O)C(C)O5)C(C)CC(C)C4C3(C)/C(O)=C3\C(=O)OC4(CC(C)C(CO)=CC4/C=C\2C)C3=O)CC1(C)[N+](=O)[O-] (configuration not stated)
- T/C [1]: 130 % of control
- T/C [2]: 126 and 142 % of control
- survivor count [10]: 7 of 10 and 8 of 10

SMILES: CCOC(=O)C(Cc1c[nH]c2ccccc12)NC(=O)C(Cc1ccccc1)NC(=O)C(Cc1cnc[nH]1)NC(=O)OCc1ccccc1 (stereo not drawn) (Cbz-His-Phe-Trp-OEt; configuration not given here)
- survivor count [2]: 9 of 10
- survivor count (dose: 400.0 mg/kg/injection, schedule: Q01DX009 (ip), vehicle: Klucel (hydroxypropylcellulose) (HPC)): 9 of 10

SMILES: CC(C)N1C(=O)N(Cl)C2C1N(Cl)C(=O)N2Cl (configuration not stated)
- survivor count [3]: 9 of 9
- survivor count [11]: 4 of 10
- survivor count [12]: 0 of 10
- survivor count [4]: 0 of 10
- survivor count [6]: 0 of 10

From PubChem BioAssay AID200 (DTP/NCI, 2004)
